Consider two molecules from publication PMC8115037, “Paracoccus denitrificans: a genetically tractable model system for studying respiratory complex I” (Scientific Reports, 2021).

These are yes or no findings as the source states them, for the method shown. Some results given as binding are weak or reduced against the parent protein; the word gives no strength. Tags and fused reporters may be left off the sequences shown.

The experiment deals with T1, Nqo5 (NDUFS3) subunit of P. denitrificans complex I with a C-terminal Ala6-His6 tag (P. denitrificans) (UniProt P29917).
T1 sequence: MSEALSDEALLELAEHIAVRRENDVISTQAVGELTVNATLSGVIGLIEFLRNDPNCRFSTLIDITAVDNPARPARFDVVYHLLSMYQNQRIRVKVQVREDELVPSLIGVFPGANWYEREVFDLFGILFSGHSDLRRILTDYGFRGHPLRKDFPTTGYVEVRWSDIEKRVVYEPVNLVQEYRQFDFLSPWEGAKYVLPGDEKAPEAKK
The experiment in a line: Ni-affinity purification and SEC with SDS-PAGE band pattern; complex I of wild type and of the K232Q^Nqo13 strain purified by the His6 tag on Nqo5, SEC elution profiles and SDS-PAGE band patterns compared.

B1: Nqo13 (ND4) subunit of P. denitrificans complex I, K232Q variant (protein, UniProt P29925 1-513)
chain: MTNLLSIITFLPIVAAIIMALFLRGQDEAAARNAKWLALLTTTATFVISLFVLFRFDPANTGFQFVEDHAWIMGVCYKMGVDGISVLFVLLTTFMMPLTILSTWQVQDKVKEYMIAFLVLEGLMIGVFTALDLVLFYLFFEAGLIPMFLIIGIWGGKDRIYASFKFFLYTFLGSVLMLVAMIAMYRMAGTTDIPTLLTFDFPSENFRLLGMTVVGGMQMLLFLAFFASFAVQMPMWPVHTWLPDAHVQAPTAGSVLLAAVLLKMGGYGFLRFSLPMFPVASGVAQPYVFWLSAIAIVYTSLVALAQSDMKKVIAYSSVAHMGYVTMGVFAANQIGVDGAIFQMLSHGFISGALFLCVGVIYDRMHTREIDAYGGLVNRMPAYAAVFMFFTMANVGLPGTSGFVGEFLTLMGVFRVDTWVALVATSGVILSAAYALWLYRRVTLGQLIKESLKSITDMTPRERWVFIPLIAMTLILGVYPRLVTDVTGPAVAALVQDYNQSQPAAPVATAQASH
For the molecule B1, the binding entry is listed as “binds”.

B2: Nqo13 (ND4) subunit of P. denitrificans complex I, wild type (protein, UniProt P29925 1-513)
chain: MTNLLSIITFLPIVAAIIMALFLRGQDEAAARNAKWLALLTTTATFVISLFVLFRFDPANTGFQFVEDHAWIMGVCYKMGVDGISVLFVLLTTFMMPLTILSTWQVQDKVKEYMIAFLVLEGLMIGVFTALDLVLFYLFFEAGLIPMFLIIGIWGGKDRIYASFKFFLYTFLGSVLMLVAMIAMYRMAGTTDIPTLLTFDFPSENFRLLGMTVVGGMQMLLFLAFFASFAVKMPMWPVHTWLPDAHVQAPTAGSVLLAAVLLKMGGYGFLRFSLPMFPVASGVAQPYVFWLSAIAIVYTSLVALAQSDMKKVIAYSSVAHMGYVTMGVFAANQIGVDGAIFQMLSHGFISGALFLCVGVIYDRMHTREIDAYGGLVNRMPAYAAVFMFFTMANVGLPGTSGFVGEFLTLMGVFRVDTWVALVATSGVILSAAYALWLYRRVTLGQLIKESLKSITDMTPRERWVFIPLIAMTLILGVYPRLVTDVTGPAVAALVQDYNQSQPAAPVATAQASH
On to B2, for which the binding result is “binds”.
